Drawing on the supplement of paper PMC10398353, this text covers normalized bacterial growth for 81 molecules.

“And” between values parts separate entries of the source, which are not always exact repeats. Equal values may be shown once. Where a name gives a salt, the structure may show the parent alone. ± gives the standard deviation of the averaged measurements. The list shows a part of the results. The data scatter; read single values as rough.

The test system of the experiment is Salmonella enterica serovar Typhimurium ST313 D23580. The experiment is described as follows: normalized bacterial growth (OD600 20 h minus 0 h, interquartile-mean normalized) (fraction of plate interquartile mean); higher = more bacterial growth (less inhibition). As to conditions: LPM (pH 5.8, low phosphate, low Mg2+), concentration: 10 µM, temperature: 37 °C.
The molecule `CC(C)(C)c1cc(C=C(C#N)C#N)cc(C(C)(C)C)c1O` [Tyrphostin A9] came in with a normalized bacterial growth of 0.975.

`CN1[C@@H]2CC[C@H]1C[C@@H](OC(=O)c1cc(Cl)cc(Cl)c1)C2` ["3-Tropanyl-3,5-dichlorobenzoate"] gave a normalized bacterial growth of 0.932.

For the molecule `C[C@@H]1C[C@@H]([C@H](O)CC2CC(=O)NC(=O)C2)C(=O)[C@@H](C)C1`, the normalized bacterial growth was found to be 0.542.

`COc1cc2c(cc1O)CCN[C@@H]2C`: the normalized bacterial growth came out at 1.14 ± 0.056.

With `O=C(NC(=O)c1c(F)cccc1F)Nc1ccc(Cl)cc1`, the normalized bacterial growth is 1.29.

Molecule `c1ccc2c(c1)OCC(C1=NCCN1)O2` (stereo unspecified) [Idazoxan hydrochloride] showed a normalized bacterial growth of 0.822.

Consider `CC(C)Nc1nc(Cl)nc(NC(C)C)n1`, for which the normalized bacterial growth is 0.905.

Regarding `N#Cc1c(Cl)c(Cl)c(Cl)c(C#N)c1Cl`, the normalized bacterial growth was 1.02.

`C=C1C/C(=C/C)C(=O)O[C@@H]2CCN3CC=C(COC(=O)[C@]1(C)O)[C@H]23` gave a normalized bacterial growth of 0.966.

As to `O=S1OCC2C(CO1)C1(Cl)C(Cl)=C(Cl)C2(Cl)C1(Cl)Cl` (stereo unspecified), the normalized bacterial growth was found to be 1.25.

As for `CCCN(CCC)[C@H]1CCc2c(F)ccc(O)c2C1` [S(-)-UH-301 hydrochloride], the normalized bacterial growth is 1.21.

For `COc1ccc(CC2NCCc3cc(OC)c(OC)cc32)cc1OC` (stereo unspecified), the normalized bacterial growth is 1.06.

For `CCCCCC[C@H]1C(=O)O[C@H](C)[C@H](NC(=O)c2cccc(NC=O)c2O)C(=O)O[C@@H](C)[C@@H]1OC(=O)CC(C)C` [Antimycin A], the normalized bacterial growth came out at 0.792.

In turn, `COc1cc2c(c3oc4cccc(O)c4c(=O)c13)[C@@H]1C=CO[C@@H]1O2` came in with a normalized bacterial growth of 0.963.

`CC[N+]1(C)CCCC(OC(=O)C(O)(c2ccccc2)c2ccccc2)C1` (stereo unspecified) displayed a normalized bacterial growth of 0.995.

`CC1=C2C(=CO[C@H](C)[C@H]2C)C(O)=C(C(=O)O)C1=O` gave a normalized bacterial growth of 0.95 ± 0.11.

`C[C@]12CC[C@@H](O)C[C@@H]1CC[C@@H]1[C@@H]2CC[C@]2(C)[C@@H](C(=O)CO)CC[C@@H]12` ["3-alpha,21-Dihydroxy-5-alpha-pregnan-20-one"] yielded a normalized bacterial growth of 0.736.

Molecule `CC1C=CC=CCCC=CC=CC=CC=CC(OC2OC(C)C(O)C(N)C2O)CC2OC(O)(CC(O)C(O)CCC(O)CC(O)CC(O)CC(=O)OC(C)C(C)C1O)CC(O)C2C(=O)O` (stereo unspecified) came in with a normalized bacterial growth of 1.33.

In the case of `COc1ccc2c(c1OC)CN1CCc3cc4c(cc3C1C2)OCO4` (stereo unspecified) ["(d,l)-Tetrahydroberberine"], the normalized bacterial growth was found to be 0.843.

With `CC(=O)O[C@H]1CC[C@@]2(C)[C@H](CC[C@@H]3[C@@H]2CC[C@]2(C)[C@@H](C4=CC(=O)OC4)[C@@H](OC(C)=O)C[C@]32O)C1`, the normalized bacterial growth turned out to be 0.838.

Molecule `C[C@H]1O[C@@H](O[C@H]2CC[C@]3(C=O)[C@H]4CC[C@]5(C)[C@@H](C6=CC(=O)OC6)CC[C@]5(O)[C@@H]4CC[C@]3(O)C2)C[C@H](O)[C@@H]1O` [Helveticoside] gave a normalized bacterial growth of 1.17.

For `CC(N)C(O)c1ccc(O)c(O)c1` (single isomer, unassigned; (-)) [(-)-alpha-Methylnorepinephrine], the normalized bacterial growth was 0.801.

As for `C[C@@H]1C[C@H](O)[C@@]2(O)[C@]13CC(=O)OC[C@@]2(C)[C@@](C)(O)C(=O)C3`, the normalized bacterial growth worked out at 1.48.

Regarding `COC1=CC(=O)O[C@@H](/C=C/c2ccc3c(c2)OCO3)C1`, the normalized bacterial growth was determined as 0.919.

As to `N#C[C@H](O[C@@H]1O[C@H](CO[C@@H]2O[C@H](CO)[C@@H](O)[C@H](O)[C@H]2O)[C@@H](O)[C@H](O)[C@H]1O)c1ccccc1`, the normalized bacterial growth turned out to be 0.84.

`CC[C@@H](CO)NC(=O)[C@@H]1C=C2c3cccc4c3c(cn4C)C[C@H]2N(C)C1` [Methysergide maleate] registered a normalized bacterial growth of 0.923.

`CC(C)C1CNC(C(=O)O)C1CC(=O)O` (stereo unspecified) [Dihydrokainic acid] came in with a normalized bacterial growth of 1.12.

The molecule `COc1cc2c(c(OC)c1OC)-c1ccc(OC)c(=O)cc1[C@@H](NC(C)=O)CC2` yielded a normalized bacterial growth of 0.96.

Molecule `COc1ccc2c(c1)[C@@]13CCCC[C@H]1[C@@H](C2)NCC3` [3-Methoxy-morphanin hydrochloride] yielded a normalized bacterial growth of 1.27.

Consider `Cc1cc([C@@H]2CCCN2C)on1` [ABT-418 hydrochloride], for which the normalized bacterial growth was 1.14.

As for `CC[C@H](C)/C=C(C)/C=C/C1=CC2=C(Cl)C(=O)[C@](C)(OC(C)=O)C(=O)C2=CO1`, the normalized bacterial growth worked out at 0.708.

In turn, `O=[N+]([O-])c1ncc[nH]1` returned a normalized bacterial growth of 0.893.

`CC(=O)O[C@H]1CC[C@@]2(C)C(=CC[C@@H]3[C@@H]2CC[C@]2(C)C(=O)CC[C@@H]32)C1` [Dehydroisoandosterone 3-acetate] gave a normalized bacterial growth of 0.941.

The molecule `N#CC(C#N)=Cc1cc(O)c(O)c(O)c1` [Tyrphostin 25] returned a normalized bacterial growth of 1.1.

`CN1C[C@H](CNC(=O)OCc2ccccc2)C[C@@H]2c3cccc4c3c(cn4C)C[C@H]21` [Metergoline]: the normalized bacterial growth was found to be 0.963.

The molecule `CN1C[C@H](CNC(=O)OCc2ccccc2)C[C@@H]2c3cccc4c3c(cn4C)C[C@H]21` came in with a normalized bacterial growth of 0.797.

`COC1=CC(=O)O[C@@H](/C=C/c2ccccc2)C1` [Kawain] registered a normalized bacterial growth of 0.946.

For `COC1=CC(=O)O[C@@H](/C=C/c2ccccc2)C1` (racemic), the normalized bacterial growth is 1.1.

In turn, `Oc1ccc2c3c1O[C@H]1[C@@H](O)CC[C@@]4(O)[C@@H](C2)N(CC2CCC2)CC[C@]314` had a normalized bacterial growth of 1.25.

As to `Oc1ccc2c3c1O[C@H]1[C@@H](O)CC[C@@]4(O)[C@@H](C2)N(CC2CCC2)CC[C@]314` [Nalbuphine hydrochloride], the normalized bacterial growth amounted to 1.15.

In turn, `O=C(O)CC[N+](=O)[O-]` [3-Nitropropionic acid] gave a normalized bacterial growth of 1.02.

For `COC(=O)C[C@](O)(CCC(C)(C)O)C(=O)O[C@@H]1C(OC)=C[C@]23CCCN2CCc2cc4c(cc2[C@H]13)OCO4`, the normalized bacterial growth is 0.979.

The molecule `OCc1cnc[nH]1` [4-Imidazolemethanol hydrochloride] displayed a normalized bacterial growth of 1.13.

`C/C=C/c1ccc2c(c1)OCO2` returned a normalized bacterial growth of 1.32.

Regarding `CN1CCc2cc3c(cc2[C@H]1[C@@H]1OC(=O)c2c1ccc1c2OCO1)OCO3`, the normalized bacterial growth was 1.17 and 1.09.

On to `Cc1nc(-c2ccc(-c3ccc(C(=O)N4CCc5cc6c(cc54)C4(CCN(C)CC4)CO6)cc3)c(C)c2)no1`, for which the normalized bacterial growth is 0.996.

In turn, `C[C@]12CC[C@H](O)C[C@H]1CC[C@@H]1[C@@H]2CC[C@]2(C)[C@@H](C3=CC(=O)OC3)CC[C@]12O` [Digitoxigenin] gave a normalized bacterial growth of 0.935.

On to `Cc1nccc2c1[nH]c1cc(O)ccc12`, for which the normalized bacterial growth is 1.16.

The molecule `CC(C)c1cc2c(c(O)c1O)[C@@]1(C(=O)O)CCCC(C)(C)[C@@H]1CC2` gave a normalized bacterial growth of 1.02 ± 0.025.

Regarding `CCCCCCC(C)OC(=O)COc1ccc(Cl)cc1Cl` (stereo unspecified), the normalized bacterial growth was 0.61.

Molecule `CC(C)c1cccc(C(C)C)c1O` [Propofol] registered a normalized bacterial growth of 1.02.

Molecule `CCCN1CCC[C@@H]2Cc3n[nH]cc3C[C@H]21` [()-Quinpirole dihydrochloride] registered a normalized bacterial growth of 1.13.

In turn, `CCCN1CCC[C@@H]2Cc3n[nH]cc3C[C@H]21` [(-)-Quinpirole hydrochloride] registered a normalized bacterial growth of 1.16.

Take `C[C@]1(C(=O)O)CCC[C@]2(C)c3cc(O)ccc3CC[C@@H]12`: the normalized bacterial growth was 1.04.

`N[C@H](CO)Cc1ccccc1` yielded a normalized bacterial growth of 0.93.

The molecule `Cc1[nH]c2ccccc2c1CN(C)C` had a normalized bacterial growth of 0.925.

In turn, `C[C@]12CCC(=O)C=C1C=C[C@@H]1[C@@H]2CC[C@@]2(C)[C@H]1CC[C@@]2(O)CCC(=O)O` gave a normalized bacterial growth of 0.997.

As to `C[C@]12CCC(=O)C=C1C=C[C@@H]1[C@@H]2CC[C@@]2(C)[C@H]1CC[C@@]2(O)CCC(=O)O` [Canrenoic acid potassium salt], the normalized bacterial growth stood at 1.11.

As for `CCOP(=S)(OCC)SCn1c(=O)oc2cc(Cl)ccc21`, the normalized bacterial growth was 1.01.

Molecule `O=C(O)COc1ccc(Cl)cc1Cl` came in with a normalized bacterial growth of 1.26.

For the molecule `CCNc1nc(Cl)nc(NCC)n1`, the normalized bacterial growth is 1.13.

Molecule `Cc1cccc(C)c1NC(=O)CN1CCCC1=O` [Nefiracetam] had a normalized bacterial growth of 1.14.

`CO[C@H]1[C@H](O)[C@H](O[C@H]2CC[C@@]3(C=O)[C@H](CC[C@@H]4[C@@H]3CC[C@]3(C)[C@@H](C5=CC(=O)OC5)CC[C@]43O)C2)O[C@@H](C)[C@@H]1O` had a normalized bacterial growth of 1.01 ± 0.072.

The molecule `COc1ccc2[nH]c3c(c2c1)CCNC3` ["6-Methoxy-1,2,3,4-tetrahydro-9H-pyrido[3,4b] indole"] yielded a normalized bacterial growth of 0.729.

As to `CC[C@@H](C(=O)[C@@H](C)[C@@H](O)[C@H](C)[C@@H]1O[C@@H]([C@@H](CC)C(=O)O)CC[C@@H]1C)[C@H]1O[C@]2(C=C[C@@H](O)[C@]3(CC[C@@](C)([C@H]4CC[C@](O)(CC)[C@H](C)O4)O3)O2)[C@H](C)C[C@@H]1C`, the normalized bacterial growth was 0.946 and 0.667.

The molecule `CC(=O)O[C@@H]1[C@H]2CC[C@H]3[C@@](C)(O)[C@@H]4C[C@H](O)C(C)(C)[C@@]4(O)[C@H](O)C[C@@]13C[C@@]2(C)O` registered a normalized bacterial growth of 1.

For the molecule `C(#CCN1CCCC1)CN1CCCC1` [Tremorine dihydrochloride], the normalized bacterial growth is 1.03.

`N#CC(C#N)=Cc1ccc(O)c(O)c1` [Tyrphostin 23]: the normalized bacterial growth turned out to be 0.867.

`CC(C)[C@H]1C(=O)O[C@@H]2CCN3CC=C(COC(=O)[C@](C)(O)[C@]1(C)O)[C@H]23` displayed a normalized bacterial growth of 1.18.

As to `CN1CC[C@]2(CCN3CCc4c(oc5ccccc45)[C@@H]3C2)N(C)C1=O`, the normalized bacterial growth was 0.884.

In the case of `COP(=O)(OC)OC=C(Cl)Cl`, the normalized bacterial growth stood at 1.14.

For the molecule `C[C@H]1CC[C@]2(NC1)O[C@H]1C[C@H]3[C@@H]4CC[C@H]5C[C@@H](O)CC[C@]5(C)[C@H]4CC[C@]3(C)[C@H]1[C@@H]2C`, the normalized bacterial growth is 0.742 and 0.98.

In the case of `CCCC[N+]1(C)[C@@H]2C[C@@H](OC(=O)[C@H](CO)c3ccccc3)C[C@H]1[C@@H]1O[C@@H]12` (stereo partly drawn) ["(-)-Scopolamine,n-Butyl-, bromide"], the normalized bacterial growth is 1.04.

Turning to `S=C=NCc1ccccc1`, the normalized bacterial growth turned out to be 1.18.

`C=CCc1ccc2c(c1)OCO2`: the normalized bacterial growth is 1.24.

With `CCCC(C)C1(CC)C(=O)NC(=O)NC1=O` (stereo unspecified), the normalized bacterial growth was 1.09.

On to `CNC1CC(N)C(O)C(OC2OC(CO)C(O)C3OC4(OC(C(N)CO)C(O)C(O)C4O)OC23)C1O` (stereo unspecified), for which the normalized bacterial growth is 1.15.

The molecule `COP(=O)(OC)C(O)C(Cl)(Cl)Cl` (stereo unspecified) yielded a normalized bacterial growth of 0.878.

`C[C@@H]1C(=O)O[C@H]2[C@H]1CC[C@@]1(C)C=CC(=O)[C@@]3(C)O[C@@]213` ["EPOXY (4,5alpha)-4,5-DIHYDROSANTONIN"]: the normalized bacterial growth was found to be 1.07.

As for `C=CCN1CC[C@]23c4c5ccc(O)c4O[C@H]2C(=O)CC[C@@]3(O)[C@H]1C5`, the normalized bacterial growth was determined as 1.02.

For `C=CCN1CC[C@]23c4c5ccc(O)c4O[C@H]2C(=O)CC[C@@]3(O)[C@H]1C5` [Naloxone hydrochloride], the normalized bacterial growth came out at 1.16 ± 0.026.
